Assay results published in PMC5518878.
Results are given in words; binding and its absence hold for the method and conditions named. For part of these data: In cells and extracts the contact can be indirect. Some entries that bind do so weakly or less than the wild type.

Chains of the proteins cited; added tags and fusions are not shown. Lines headed by an entry give the natural chain unless they say otherwise; changes in a name come on top. Residues count along the entry.
UniProt P28222: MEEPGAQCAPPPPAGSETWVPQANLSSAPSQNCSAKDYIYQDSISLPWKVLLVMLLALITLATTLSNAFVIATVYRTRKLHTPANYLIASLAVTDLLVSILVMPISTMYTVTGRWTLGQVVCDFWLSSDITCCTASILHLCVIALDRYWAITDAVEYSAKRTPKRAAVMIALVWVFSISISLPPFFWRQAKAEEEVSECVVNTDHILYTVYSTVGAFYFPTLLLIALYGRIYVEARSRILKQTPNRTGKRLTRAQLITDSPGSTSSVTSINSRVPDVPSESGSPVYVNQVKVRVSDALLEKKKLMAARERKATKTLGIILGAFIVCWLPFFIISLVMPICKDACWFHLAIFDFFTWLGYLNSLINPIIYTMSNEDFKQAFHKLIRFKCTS
UniProt Q03431, residues 27-593: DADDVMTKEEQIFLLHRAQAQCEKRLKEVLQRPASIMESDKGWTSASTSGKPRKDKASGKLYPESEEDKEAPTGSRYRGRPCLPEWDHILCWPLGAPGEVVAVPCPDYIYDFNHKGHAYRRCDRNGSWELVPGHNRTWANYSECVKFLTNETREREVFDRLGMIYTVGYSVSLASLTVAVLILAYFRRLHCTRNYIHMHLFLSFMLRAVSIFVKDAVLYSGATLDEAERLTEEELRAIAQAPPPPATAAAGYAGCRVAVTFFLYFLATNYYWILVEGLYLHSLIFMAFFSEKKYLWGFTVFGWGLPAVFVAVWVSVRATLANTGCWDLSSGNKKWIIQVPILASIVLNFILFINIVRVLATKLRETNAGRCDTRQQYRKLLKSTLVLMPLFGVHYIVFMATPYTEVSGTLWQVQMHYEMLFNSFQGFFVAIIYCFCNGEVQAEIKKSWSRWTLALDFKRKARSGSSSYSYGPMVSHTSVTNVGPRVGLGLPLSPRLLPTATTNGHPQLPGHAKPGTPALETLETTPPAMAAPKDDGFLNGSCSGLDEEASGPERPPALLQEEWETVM
UniProt P10523: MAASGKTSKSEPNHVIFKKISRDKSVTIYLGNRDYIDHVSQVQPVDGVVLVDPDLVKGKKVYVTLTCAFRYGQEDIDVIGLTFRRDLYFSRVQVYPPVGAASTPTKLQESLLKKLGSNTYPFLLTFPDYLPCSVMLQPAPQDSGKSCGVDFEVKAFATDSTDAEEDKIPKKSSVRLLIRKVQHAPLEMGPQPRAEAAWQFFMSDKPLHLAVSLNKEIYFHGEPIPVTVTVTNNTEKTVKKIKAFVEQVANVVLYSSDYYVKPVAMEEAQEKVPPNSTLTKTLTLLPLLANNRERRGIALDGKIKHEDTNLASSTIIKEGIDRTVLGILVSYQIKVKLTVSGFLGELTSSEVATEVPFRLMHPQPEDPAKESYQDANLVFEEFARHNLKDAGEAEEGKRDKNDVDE
UniProt P21146: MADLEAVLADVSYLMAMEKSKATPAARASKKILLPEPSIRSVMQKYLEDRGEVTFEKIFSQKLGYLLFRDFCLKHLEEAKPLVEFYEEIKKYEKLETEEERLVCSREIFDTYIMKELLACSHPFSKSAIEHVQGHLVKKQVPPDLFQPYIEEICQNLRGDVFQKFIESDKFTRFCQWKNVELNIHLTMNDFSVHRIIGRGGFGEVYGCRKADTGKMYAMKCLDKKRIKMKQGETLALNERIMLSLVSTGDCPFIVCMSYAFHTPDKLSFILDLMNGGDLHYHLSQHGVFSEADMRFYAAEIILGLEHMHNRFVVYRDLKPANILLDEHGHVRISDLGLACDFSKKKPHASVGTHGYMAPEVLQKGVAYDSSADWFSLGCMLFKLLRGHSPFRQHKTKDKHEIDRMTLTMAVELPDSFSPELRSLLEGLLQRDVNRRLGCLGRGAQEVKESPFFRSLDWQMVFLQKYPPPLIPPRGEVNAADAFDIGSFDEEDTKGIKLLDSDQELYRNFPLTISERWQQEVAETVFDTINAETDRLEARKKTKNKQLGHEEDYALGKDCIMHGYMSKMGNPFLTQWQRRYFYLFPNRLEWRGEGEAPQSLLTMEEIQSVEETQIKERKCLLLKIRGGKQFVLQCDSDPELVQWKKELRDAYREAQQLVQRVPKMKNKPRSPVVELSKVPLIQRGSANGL
UniProt P34947: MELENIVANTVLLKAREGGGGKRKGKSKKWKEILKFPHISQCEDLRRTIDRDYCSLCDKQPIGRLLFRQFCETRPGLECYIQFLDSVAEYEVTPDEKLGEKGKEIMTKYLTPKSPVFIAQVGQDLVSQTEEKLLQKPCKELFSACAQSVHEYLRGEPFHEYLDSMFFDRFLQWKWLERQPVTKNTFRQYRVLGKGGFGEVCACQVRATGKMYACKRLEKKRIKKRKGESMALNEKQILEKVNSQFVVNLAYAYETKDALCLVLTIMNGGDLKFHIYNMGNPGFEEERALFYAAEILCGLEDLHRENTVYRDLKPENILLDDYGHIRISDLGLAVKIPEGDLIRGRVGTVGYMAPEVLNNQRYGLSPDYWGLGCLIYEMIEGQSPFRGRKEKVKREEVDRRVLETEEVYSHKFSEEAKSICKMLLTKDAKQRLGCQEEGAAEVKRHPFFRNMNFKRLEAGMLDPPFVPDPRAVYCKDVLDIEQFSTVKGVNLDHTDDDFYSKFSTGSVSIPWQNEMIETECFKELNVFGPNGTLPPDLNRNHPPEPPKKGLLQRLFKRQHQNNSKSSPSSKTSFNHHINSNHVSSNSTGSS

What was measured:
[1] = molecular target: H8-MBP-Rho (4M), purified (human) (UniProt P08100); assay: AlphaScreen or HTRF; biotinylated WT arrestin and His8-tagged 4M Rho, without GRK1 or with GRK1 but without ATP; both purified
[2] = molecular target: β2-adrenergic receptor fused to a TEV cleavage site and tTA (human) (UniProt P07550); assay: Tango assay (TEV protease proximity reporter); HTL cells co-transfected with receptor-TEV cleavage site-tTA and GRK-TEV protease fusions; luciferase reporter; vehicle or ligand overnight (ATR 10 μM for rhodopsin; paroxetine; DHE 0.1 μM, GR 127935 1 μM; SX 1 μM, ICI 118 551 1 μM); DNA amounts adjusted for similar expression
[3] = molecular target: serotonin receptor 5-HT1B fused to a TEV cleavage site and tTA (human) (UniProt P28222); assay: as above
[4] = molecular target: parathyroid hormone receptor (PTH1R) fused to a TEV cleavage site and tTA (human) (UniProt Q03431); assay: as above
[5] = molecular target: H8-MBP-Rho (4M), purified (human) (UniProt P08100); assay: AlphaScreen or HTRF; His8-tagged Rho on nickel-chelated acceptor beads, biotinylated GRK on streptavidin donor beads; 40 nM of each protein; 50 mM MOPS-Na pH 7.4, 50 mM NaF, 50 mM CHAPS, 0.01% DDM, 0.1 mg/ml BSA; also with paroxetine; both purified

Substance	binding [1]	binding [2]	binding [3]	binding [4]	binding [5]
Arrestin-biotin-MBP (human wild-type visual arrestin), purified (from UniProt P10523 1-405)	binds weakly	–	–	–	–
GRK2 (1-184)-TEV protease fusion (from UniProt P21146 1-184) (domain or fragment)	–	binds	binds	binds	–
GRK2 (28-184)-TEV protease fusion (from UniProt P21146 28-184) (domain or fragment)	–	binds	binds	binds	–

The remaining lines, values ahead:

binding [1]	binding [2]	binding [3]	binding [4]	binding [5]	Substance
–	–	–	–	binds	GRK5, purified, of the AlphaScreen assay (from UniProt P34947 1-590) (enzyme)
–	–	–	binds	–	bovine GRK2 fused to the N-terminus of TEV protease (from UniProt P21146 1-689) (enzyme)
